Experimental data published in patent publication US20240058308A1, “TREATMENT AND PREVENTION OF DRY MACULAR DEGENERATION” (The Regents of the University of Michigan, priority 2021, published 2024).
At least one structure is not confirmed: it was looked up by name or label, or the drawing left a doubt.

Columns and labels:
[1] = system: primary human fetal RPE (hfRPE) culture; test: Autophagy induction by LC3 lipidation (LC3-II/LC3-I ratio) on Western blot; format: cell-based; conditions: 24 hours exposure, vs vehicle (DMSO)
Description: (§1) Cell cultures were exposed to each putative autophagy inducer at a concentration indicated in Table 1 for 24 hours, lysed with 36 μL of SDS sample buffer with β-mercaptoethanol, with 15 μg of lysate loaded on a 4-15% gradient gel followed by transfer to a PVDF membrane. Blots were incubated with 1:1000 of LC3A/B antibody (Cell Signaling Technology; #4108s, RRID:AB_2137703) overnight. Quantifying LC3-II/LC3-I ratio is a well-accepted method for det 306 ermining autophagy induction [Ref. 44; incorporated by reference in its entirety], and this ratio was quantified in a non-saturated, linear range using the Azure c500 Imaging System (Azure Biosystems, Dublin, CA, USA) and a combination of AzureSpot and ImageJ software. […] A range of LC3 staining and puncta quantification protocols specifically adapted to pigmented hfRPE culture were employed [Ref. 43; incorporated by reference in its entirety]. At least five fields of view were randomly chosen and analyzed per experimental replicate for LC3 immunocytochemistry.
To test for autophagy induction, lipidation of the core autophagy protein LC3 was measured by mobility shift on Western blots 24 hours after each compound was added to hfRPE cultures [Ref. 44; incorporated by reference in its entirety]. […]
Autophagy induction was measured by LC3-II/LC3-I Ratios on Western Blot (standard method for autophagy induction) (FIG. 18A-C). […]

[2] = system: primary human fetal RPE (hfRPE) culture; test: Autophagy induction by LC3 puncta formation (immunocytochemistry); format: cell-based; conditions: 24 hours exposure
Description: as §1
Autophagy induction was confirmed by assaying the formation of LC3-positive puncta (autophagosomes) by immunocytochemistry [Ref. 44; incorporated by reference in its entirety]. Puncta formation was quantified in automated/unbiased fashion using a customized macro in the Fiji/ImageJ platform [Ref. 43; incorporated by reference in its entirety]. […]

advanced dry AMD = conditions: randomized controlled trial; cited from earlier work

Row | SMILES | LC3-II/LC3-I ratio (autophagy induction) [1] | LC3 puncta formation (autophagy induction) [2] | Therapeutic benefit in advanced dry AMD (advanced dry AMD)
1 | CCN(CC)CCNC(=O)c1c(C)[nH]c(/C=C2\C(=O)Nc3ccc(F)cc32)c1C [sunitinib] | evidence for autophagy induction | confirming autophagy induction | –
2 | CO[C@H]1C[C@@H]2CC[C@@H](C)[C@@](O)(O2)C(=O)C(=O)N2CCCC[C@H]2C(=O)O[C@H]([C@H](C)C[C@@H]2CC[C@@H](O)[C@H](OC)C2)CC(=O)[C@H](C)/C=C(\C)[C@@H](O)[C@@H](OC)C(=O)[C@H](C)C[C@H](C)/C=C/C=C/C=C/1C [sirolimus] | – | – | failed to demonstrate therapeutic benefit
